Experimental data as given in the supplement of paper PMC11732987, “Enantioselective OTUD7B fragment discovery through chemoproteomics screening and high-throughput optimisation” (Communications Chemistry, 2025).
Some of the results follow. The data scatter; read single values as rough.

Protein sequences, listed by entry. Tags and fused reporters are not part of them. Lines headed by an entry give the natural chain unless they say otherwise; changes in a name come on top. Residues count along the entry.
UniProt Q9HDC5: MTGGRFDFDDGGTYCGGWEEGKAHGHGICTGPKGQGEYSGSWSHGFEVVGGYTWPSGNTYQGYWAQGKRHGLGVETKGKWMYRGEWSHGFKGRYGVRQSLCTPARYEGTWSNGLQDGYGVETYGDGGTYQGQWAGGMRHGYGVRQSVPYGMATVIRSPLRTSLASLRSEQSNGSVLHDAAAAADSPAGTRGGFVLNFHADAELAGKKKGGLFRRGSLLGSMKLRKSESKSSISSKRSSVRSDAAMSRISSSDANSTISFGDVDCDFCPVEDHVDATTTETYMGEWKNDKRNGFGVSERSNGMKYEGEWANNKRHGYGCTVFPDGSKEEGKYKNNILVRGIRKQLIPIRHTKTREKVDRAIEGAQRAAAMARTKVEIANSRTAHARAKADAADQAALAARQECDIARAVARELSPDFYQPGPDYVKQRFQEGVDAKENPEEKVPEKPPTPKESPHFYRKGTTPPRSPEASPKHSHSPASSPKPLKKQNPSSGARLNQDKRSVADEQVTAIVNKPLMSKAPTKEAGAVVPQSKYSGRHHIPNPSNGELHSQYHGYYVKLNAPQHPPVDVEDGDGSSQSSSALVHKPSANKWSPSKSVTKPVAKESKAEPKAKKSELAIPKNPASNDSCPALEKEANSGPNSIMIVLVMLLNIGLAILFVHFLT
UniProt Q5T5P2: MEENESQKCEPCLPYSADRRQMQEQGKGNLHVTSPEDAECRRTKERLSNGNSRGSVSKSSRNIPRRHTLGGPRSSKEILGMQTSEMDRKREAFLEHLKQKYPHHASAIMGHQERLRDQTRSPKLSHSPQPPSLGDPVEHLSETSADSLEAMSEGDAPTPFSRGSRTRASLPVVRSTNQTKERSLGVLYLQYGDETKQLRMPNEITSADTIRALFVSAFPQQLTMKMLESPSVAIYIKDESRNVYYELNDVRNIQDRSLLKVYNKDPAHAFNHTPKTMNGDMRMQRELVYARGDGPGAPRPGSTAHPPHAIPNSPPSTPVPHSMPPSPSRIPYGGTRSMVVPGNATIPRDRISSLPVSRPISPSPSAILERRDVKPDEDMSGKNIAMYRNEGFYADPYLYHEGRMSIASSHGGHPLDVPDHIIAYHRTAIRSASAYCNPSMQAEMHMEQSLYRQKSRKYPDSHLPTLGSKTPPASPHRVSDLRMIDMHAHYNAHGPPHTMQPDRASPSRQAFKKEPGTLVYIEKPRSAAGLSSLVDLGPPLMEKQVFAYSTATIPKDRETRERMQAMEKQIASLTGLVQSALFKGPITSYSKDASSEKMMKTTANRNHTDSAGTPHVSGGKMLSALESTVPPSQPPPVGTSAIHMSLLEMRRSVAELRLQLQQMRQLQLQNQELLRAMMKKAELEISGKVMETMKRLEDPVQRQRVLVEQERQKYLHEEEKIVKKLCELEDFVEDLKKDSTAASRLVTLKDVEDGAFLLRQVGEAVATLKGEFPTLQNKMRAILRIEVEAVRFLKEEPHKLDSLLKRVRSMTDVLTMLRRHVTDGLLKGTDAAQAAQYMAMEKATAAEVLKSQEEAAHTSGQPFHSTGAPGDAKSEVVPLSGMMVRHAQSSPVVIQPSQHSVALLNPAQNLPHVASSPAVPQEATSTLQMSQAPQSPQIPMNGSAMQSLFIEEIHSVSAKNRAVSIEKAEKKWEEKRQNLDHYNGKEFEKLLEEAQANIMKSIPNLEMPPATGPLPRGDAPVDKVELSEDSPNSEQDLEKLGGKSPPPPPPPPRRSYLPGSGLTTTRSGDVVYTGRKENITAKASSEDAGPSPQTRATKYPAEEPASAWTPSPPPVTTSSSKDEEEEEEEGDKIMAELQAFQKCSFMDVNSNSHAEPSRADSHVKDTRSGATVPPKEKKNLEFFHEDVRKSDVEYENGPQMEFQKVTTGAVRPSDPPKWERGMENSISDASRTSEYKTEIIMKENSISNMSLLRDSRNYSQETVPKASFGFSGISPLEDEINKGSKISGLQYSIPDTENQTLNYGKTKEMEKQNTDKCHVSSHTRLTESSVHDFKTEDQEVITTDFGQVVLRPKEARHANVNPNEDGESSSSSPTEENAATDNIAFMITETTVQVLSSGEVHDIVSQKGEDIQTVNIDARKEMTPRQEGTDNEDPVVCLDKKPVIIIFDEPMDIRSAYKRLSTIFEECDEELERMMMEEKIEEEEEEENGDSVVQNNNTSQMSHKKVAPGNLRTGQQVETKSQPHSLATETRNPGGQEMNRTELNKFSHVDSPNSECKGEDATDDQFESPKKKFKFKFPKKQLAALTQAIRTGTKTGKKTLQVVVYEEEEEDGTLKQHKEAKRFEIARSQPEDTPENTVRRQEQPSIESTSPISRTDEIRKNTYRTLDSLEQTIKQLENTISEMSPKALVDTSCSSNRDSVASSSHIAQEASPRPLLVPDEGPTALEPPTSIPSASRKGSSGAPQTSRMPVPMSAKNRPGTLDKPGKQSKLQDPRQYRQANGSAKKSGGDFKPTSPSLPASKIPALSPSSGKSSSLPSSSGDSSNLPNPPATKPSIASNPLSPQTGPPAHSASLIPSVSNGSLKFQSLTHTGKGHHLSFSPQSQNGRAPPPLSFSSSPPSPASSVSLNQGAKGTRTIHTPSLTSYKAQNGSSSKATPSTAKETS
UniProt Q9Y6Y0, 266-286: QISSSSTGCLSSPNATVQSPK
UniProt Q14643: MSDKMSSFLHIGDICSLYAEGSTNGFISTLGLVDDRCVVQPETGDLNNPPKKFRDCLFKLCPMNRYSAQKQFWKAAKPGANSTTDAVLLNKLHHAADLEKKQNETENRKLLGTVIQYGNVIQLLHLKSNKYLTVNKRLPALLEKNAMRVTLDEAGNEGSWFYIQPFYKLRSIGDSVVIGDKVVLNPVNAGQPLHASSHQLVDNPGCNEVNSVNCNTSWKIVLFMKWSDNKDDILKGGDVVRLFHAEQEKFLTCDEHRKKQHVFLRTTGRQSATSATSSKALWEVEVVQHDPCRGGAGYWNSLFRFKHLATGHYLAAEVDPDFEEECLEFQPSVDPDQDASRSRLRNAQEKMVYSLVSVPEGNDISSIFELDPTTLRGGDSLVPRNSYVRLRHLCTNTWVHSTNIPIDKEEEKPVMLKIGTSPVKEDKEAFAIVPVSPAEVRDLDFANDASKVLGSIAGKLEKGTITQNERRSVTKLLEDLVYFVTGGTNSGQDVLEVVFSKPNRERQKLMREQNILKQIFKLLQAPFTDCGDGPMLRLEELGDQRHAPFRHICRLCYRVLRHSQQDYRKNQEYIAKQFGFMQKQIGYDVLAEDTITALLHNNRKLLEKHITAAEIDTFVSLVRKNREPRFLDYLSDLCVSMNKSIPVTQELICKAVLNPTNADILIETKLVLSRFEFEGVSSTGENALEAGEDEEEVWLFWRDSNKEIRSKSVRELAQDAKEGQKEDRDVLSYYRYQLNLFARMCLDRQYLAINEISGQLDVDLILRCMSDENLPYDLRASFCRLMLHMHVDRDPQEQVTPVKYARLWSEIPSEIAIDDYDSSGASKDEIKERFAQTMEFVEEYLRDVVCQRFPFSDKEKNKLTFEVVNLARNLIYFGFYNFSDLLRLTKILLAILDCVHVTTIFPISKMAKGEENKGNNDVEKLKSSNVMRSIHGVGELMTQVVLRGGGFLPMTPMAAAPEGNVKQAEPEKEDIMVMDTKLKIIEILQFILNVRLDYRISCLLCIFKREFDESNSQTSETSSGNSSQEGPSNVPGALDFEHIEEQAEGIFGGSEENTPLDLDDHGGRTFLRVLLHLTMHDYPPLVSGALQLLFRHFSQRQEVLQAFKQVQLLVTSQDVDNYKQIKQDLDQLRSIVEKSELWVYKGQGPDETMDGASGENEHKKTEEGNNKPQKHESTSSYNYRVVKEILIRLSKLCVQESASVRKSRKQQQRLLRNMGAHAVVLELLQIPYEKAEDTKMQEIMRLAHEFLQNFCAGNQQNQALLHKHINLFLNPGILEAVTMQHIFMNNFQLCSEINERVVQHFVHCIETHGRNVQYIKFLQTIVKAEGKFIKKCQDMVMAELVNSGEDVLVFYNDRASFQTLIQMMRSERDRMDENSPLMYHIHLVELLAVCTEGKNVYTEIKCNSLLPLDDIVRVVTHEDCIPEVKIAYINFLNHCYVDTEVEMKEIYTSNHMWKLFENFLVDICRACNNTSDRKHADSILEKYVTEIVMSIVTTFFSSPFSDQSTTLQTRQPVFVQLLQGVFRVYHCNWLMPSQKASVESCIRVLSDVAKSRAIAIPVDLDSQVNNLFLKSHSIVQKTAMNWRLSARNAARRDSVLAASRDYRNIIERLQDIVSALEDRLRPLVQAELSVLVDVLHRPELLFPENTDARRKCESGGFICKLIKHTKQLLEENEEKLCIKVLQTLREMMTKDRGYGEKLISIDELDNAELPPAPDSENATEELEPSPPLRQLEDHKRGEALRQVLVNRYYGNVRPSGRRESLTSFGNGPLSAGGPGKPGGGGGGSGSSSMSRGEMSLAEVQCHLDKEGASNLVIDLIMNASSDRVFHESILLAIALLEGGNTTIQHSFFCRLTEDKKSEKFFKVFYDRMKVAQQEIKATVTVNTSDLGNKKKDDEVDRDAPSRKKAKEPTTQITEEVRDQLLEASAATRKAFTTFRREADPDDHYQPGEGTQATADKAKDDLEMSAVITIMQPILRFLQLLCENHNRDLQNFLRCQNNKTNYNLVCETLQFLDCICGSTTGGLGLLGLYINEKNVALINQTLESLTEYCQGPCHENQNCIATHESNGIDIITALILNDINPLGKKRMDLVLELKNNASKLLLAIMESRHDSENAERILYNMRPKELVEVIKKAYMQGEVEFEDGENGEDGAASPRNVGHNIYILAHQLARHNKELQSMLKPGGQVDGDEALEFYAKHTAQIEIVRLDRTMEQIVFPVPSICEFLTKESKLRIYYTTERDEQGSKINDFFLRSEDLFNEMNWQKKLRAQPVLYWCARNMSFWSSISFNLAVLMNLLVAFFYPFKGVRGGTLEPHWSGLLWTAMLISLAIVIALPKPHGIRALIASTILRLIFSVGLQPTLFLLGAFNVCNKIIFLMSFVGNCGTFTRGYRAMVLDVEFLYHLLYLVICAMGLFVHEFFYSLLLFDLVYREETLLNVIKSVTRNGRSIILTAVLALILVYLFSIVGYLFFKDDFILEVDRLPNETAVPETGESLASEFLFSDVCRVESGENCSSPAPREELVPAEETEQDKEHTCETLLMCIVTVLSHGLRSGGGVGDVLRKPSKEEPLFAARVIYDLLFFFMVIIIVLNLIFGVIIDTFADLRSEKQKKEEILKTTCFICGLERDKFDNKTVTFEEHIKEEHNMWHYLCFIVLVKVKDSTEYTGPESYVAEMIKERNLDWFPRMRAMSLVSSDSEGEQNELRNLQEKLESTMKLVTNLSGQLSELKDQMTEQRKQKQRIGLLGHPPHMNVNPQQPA
UniProt P14923, 87-115: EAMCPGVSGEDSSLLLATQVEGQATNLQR
UniProt Q92613: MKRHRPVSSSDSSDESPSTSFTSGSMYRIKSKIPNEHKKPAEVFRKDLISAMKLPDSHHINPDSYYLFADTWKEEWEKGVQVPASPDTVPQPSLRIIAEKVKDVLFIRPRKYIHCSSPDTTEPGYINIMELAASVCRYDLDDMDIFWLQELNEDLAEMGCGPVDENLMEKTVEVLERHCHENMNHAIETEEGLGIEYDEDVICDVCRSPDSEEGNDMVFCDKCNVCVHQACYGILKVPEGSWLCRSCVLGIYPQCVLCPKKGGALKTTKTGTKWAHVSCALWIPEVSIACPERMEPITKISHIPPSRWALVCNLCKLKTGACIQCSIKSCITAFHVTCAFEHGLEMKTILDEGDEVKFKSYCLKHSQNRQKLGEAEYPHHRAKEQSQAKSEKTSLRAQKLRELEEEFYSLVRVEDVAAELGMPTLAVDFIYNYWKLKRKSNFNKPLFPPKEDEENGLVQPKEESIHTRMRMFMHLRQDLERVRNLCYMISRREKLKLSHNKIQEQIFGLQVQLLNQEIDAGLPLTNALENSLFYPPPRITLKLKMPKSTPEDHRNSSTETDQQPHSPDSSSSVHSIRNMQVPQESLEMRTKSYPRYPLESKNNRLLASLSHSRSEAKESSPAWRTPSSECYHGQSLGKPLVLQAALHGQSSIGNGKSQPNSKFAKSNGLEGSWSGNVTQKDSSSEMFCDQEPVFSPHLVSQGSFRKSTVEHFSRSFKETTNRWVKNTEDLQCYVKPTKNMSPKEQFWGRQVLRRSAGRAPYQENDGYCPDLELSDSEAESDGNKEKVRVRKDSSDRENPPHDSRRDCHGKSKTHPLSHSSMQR

These targets were tested with ClCC(=O)N[C@H]1CCCc2ccccc12 (assay: log2 mean competition ratio of IA-DTB cysteine labelling (DMSO/compound) (log2 ratio); higher = stronger cysteine engagement by compound). Conditions: 50 µM; treatment time: 4 h; cell line lysate: HEK293T.
Description: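 IA-DTB competitive cysteine chemoproteomics in HEK293T RIPA lysate. Lysates were treated with compound 29 or 30 at 50 or 200 µM for 4 h, then IA-DTB (500 µM, 1 h), trypsin-digested, NeutrAvidin-enriched and analysed by diaPASEF. Competition ratio = intensity DMSO / intensity compound (n=4 treated, n=64 DMSO); binding: mean log2 CR ≥ 1 and p ≤ 0.05 plus QC filters. Target is the cysteine site.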

Target | log2 mean competition ratio
KBTBD11 C537 (UniProt O94819) | -0.0383
KIF4A C895 (UniProt O95239) | -0.171
KIF2A C420 (UniProt O00139) | 0.0227
JPH1 C626 (UniProt Q9HDC5) | -0.198
KIAA1217 C1693 (UniProt Q5T5P2) | 0.203
KIF23 C933 (UniProt Q02241) | -0.185
IVNS1ABP C274 (UniProt Q9Y6Y0) | 0.431
ITPR1 C1406 (UniProt Q14643) | -0.0339
KDM3A C1140 (UniProt Q9Y4C1) | -0.672
KIF21A C204 | -0.208
KIF11 C734 (UniProt P52732) | -0.00196
KIAA1671 C817 | -0.133
ITPR2 C420 (UniProt Q14571) | -0.0693
JUP C90 (UniProt P14923) | 0.203
ITGAV C172 (UniProt P06756) | 0.13
JADE3 C732 (UniProt Q92613) | -0.153
KBTBD2 C524 (UniProt Q8IY47) | 0.106
KIDINS220 C412 (UniProt Q9ULH0) | -0.197
KIF18B C782 (UniProt Q86Y91) | 0.165
KIF13B C1529 (UniProt Q9NQT8) | 0.117

Same assay, conditions: 200 µM; treatment time: 4 h; cell line lysate: HEK293T

Target | log2 mean competition ratio
JPH1 C101 (UniProt Q9HDC5) | 0.118
KBTBD11 C537 (UniProt O94819) | -0.0103
KIF4A C895 (UniProt O95239) | 0.0111
KIF2A C420 (UniProt O00139) | 0.269
JPH1 C626 (UniProt Q9HDC5) | 0.00998
KIAA1217 C1693 (UniProt Q5T5P2) | -0.0527
KIF23 C933 (UniProt Q02241) | 0.0343
IVNS1ABP C274 (UniProt Q9Y6Y0) | -0.175
ITPR1 C1406 (UniProt Q14643) | -0.0162
KDM3A C1140 (UniProt Q9Y4C1) | -0.00863
KIF21A C204 | 0.0797
KIF11 C734 (UniProt P52732) | -0.0938
KIAA1671 C817 | 0.374
ITPR2 C420 (UniProt Q14571) | -0.22
JUP C90 (UniProt P14923) | -0.355
ITGAV C172 (UniProt P06756) | 0.302
JADE3 C732 (UniProt Q92613) | -0.0348
KBTBD2 C524 (UniProt Q8IY47) | -0.288
KIDINS220 C412 (UniProt Q9ULH0) | -0.0182
KIF18B C782 (UniProt Q86Y91) | 0.0154
KIF13B C1529 (UniProt Q9NQT8) | -0.201
